# Source: the supplement of paper PMC8728848
# Some of the results follow.
# Experiments:
# Assay in all cases: glycan array binding signal (z-score within array); higher = stronger binding
# Settings in all cases: glycan notation: IUPAC condensed, linker removed
# [1] = biological target: Gal(a1-3)Gal(b1-4)GlcNAc(b1-2)Man
# Method in brief: (§1)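 Arrays were curated from the Consortium for Functional Glycomics database, 3228 in total, and kept only where the protein sequence was available. Binding is expressed as a within-array Z-score. This score was averaged across arrays of the same protein sequence at different concentrations or buffers and across linkers, and negative values can be read as non-binding.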
# [2] = biological target: Gal(a1-3)Gal(b1-4)GlcNAc(b1-2)Man(a1-3)[Gal(a1-3)Gal(b1-4)GlcNAc(b1-2)Man(a1-6)]Man(b1-4)GlcNAc(b1-4)GlcNAc
# Method in brief: as §1
# [3] = biological target: Gal(a1-3)Gal(b1-4)GlcNAc(b1-3)GalNAc
# Method in brief: as §1
# [4] = biological target: Gal(a1-3)Gal(b1-4)GlcNAc(b1-6)GalNAc
# Method in brief: as §1
# [5] = biological target: Gal(a1-3)Gal(b1-4)[Fuc(a1-3)]GlcNAc
# Method in brief: as §1
# [6] = biological target: Gal(a1-3)Gal(b1-4)[Fuc(a1-3)]GlcNAc(b1-2)Man(a1-3)[Gal(a1-3)Gal(b1-4)[Fuc(a1-3)]GlcNAc(b1-2)Man(a1-6)]Man(b1-4)GlcNAc(b1-4)GlcNAc
# Method in brief: as §1
# Gal(a1-3)GalNAc = biological target: Gal(a1-3)GalNAc
# Method in brief: as §1
# [7] = biological target: Gal(a1-3)[Gal(a1-4)]Gal(b1-4)GlcNAc
# Method in brief: as §1
# [8] = biological target: Gal(a1-4)Gal(b1-3)GlcNAc(b1-2)Man(a1-3)[Gal(a1-4)Gal(b1-3)GlcNAc(b1-2)Man(a1-6)]Man(b1-4)GlcNAc(b1-4)GlcNAc
# Method in brief: as §1
# Gal(a1-4)Gal(b1-4)Glc = biological target: Gal(a1-4)Gal(b1-4)Glc
# Method in brief: as §1
# Gal(a1-4)Gal(b1-4)GlcNAc = biological target: Gal(a1-4)Gal(b1-4)GlcNAc
# Method in brief: as §1
# [9] = biological target: Gal(a1-4)Gal(b1-4)GlcNAc(b1-2)Man(a1-3)[Gal(a1-4)Gal(b1-4)GlcNAc(b1-2)Man(a1-6)]Man(b1-4)GlcNAc(b1-4)GlcNAc
# Method in brief: as §1
# [10] = biological target: Gal(a1-4)Gal(b1-4)GlcNAc(b1-3)Gal(b1-4)Glc
# Method in brief: as §1
# Gal(a1-4)GlcNAc = biological target: Gal(a1-4)GlcNAc
# Method in brief: as §1
# Gal(a1-6)Glc = biological target: Gal(a1-6)Glc
# Method in brief: as §1
# Gal(b1-2)Gal = biological target: Gal(b1-2)Gal
# Method in brief: as §1
# Gal(b1-3)Gal = biological target: Gal(b1-3)Gal
# Method in brief: as §1
# Gal(b1-3)Gal(b1-4)GlcNAc = biological target: Gal(b1-3)Gal(b1-4)GlcNAc
# Method in brief: as §1
# [11] = biological target: Gal(b1-3)Gal(b1-4)GlcNAc(b1-2)Man(a1-3)[Gal(b1-3)Gal(b1-4)GlcNAc(b1-2)Man(a1-6)]Man(b1-4)GlcNAc(b1-4)GlcNAc
# Method in brief: as §1
# Gal(b1-3)GalNAc = biological target: Gal(b1-3)GalNAc
# Method in brief: as §1
# [12] = biological target: Gal(b1-3)GalNAc(a1-3)[Fuc(a1-2)]Gal(b1-4)Glc
# Method in brief: as §1
# [13] = biological target: Gal(b1-3)GalNAc(a1-3)[Fuc(a1-2)]Gal(b1-4)GlcNAc
# Method in brief: as §1
# Gal(b1-3)GalNAc(b1-3)Gal = biological target: Gal(b1-3)GalNAc(b1-3)Gal
# Method in brief: as §1
# [14] = biological target: Gal(b1-3)GalNAc(b1-3)Gal(a1-4)Gal(b1-4)Glc
# Method in brief: as §1
# [15] = biological target: Gal(b1-3)GalNAc(b1-4)Gal(b1-4)Glc
# Method in brief: as §1
# [16] = biological target: Gal(b1-3)GalNAc(b1-4)[Neu5Ac(a2-3)]Gal(b1-4)Glc
# Method in brief: as §1
# Gal(b1-3)GlcNAc = biological target: Gal(b1-3)GlcNAc
# Method in brief: as §1
# [17] = biological target: Gal(b1-3)GlcNAc(a1-3)Gal(b1-4)GlcNAc
# Method in brief: as §1
# [18] = biological target: Gal(b1-3)GlcNAc(a1-6)Gal(b1-4)GlcNAc
# Method in brief: as §1
# Gal(b1-3)GlcNAc(b1-2)Man = biological target: Gal(b1-3)GlcNAc(b1-2)Man
# Method in brief: as §1
# [19] = biological target: Gal(b1-3)GlcNAc(b1-2)Man(a1-3)[Gal(b1-3)GlcNAc(b1-2)Man(a1-6)]Man(b1-4)GlcNAc(b1-4)GlcNAc
# Method in brief: as §1
# [20] = biological target: Gal(b1-3)GlcNAc(b1-2)Man(a1-3)[Gal(b1-3)GlcNAc(b1-2)Man(a1-6)]Man(b1-4)GlcNAc(b1-4)[Fuc(a1-6)]GlcNAc
# Method in brief: as §1
# [21] = biological target: Gal(b1-3)GlcNAc(b1-2)Man(a1-3)[GlcNAc(b1-4)][Gal(b1-3)GlcNAc(b1-2)Man(a1-6)]Man(b1-4)GlcNAc(b1-4)GlcNAc
# Method in brief: as §1
# [22] = biological target: Gal(b1-3)GlcNAc(b1-2)[Gal(b1-3)GlcNAc(b1-6)]Man(a1-6)[Gal(b1-3)GlcNAc(b1-2)Man(a1-3)]Man(b1-4)GlcNAc(b1-4)GlcNAc
# Method in brief: as §1
# [23] = biological target: Gal(b1-3)GlcNAc(b1-3)Gal(b1-3)GlcNAc
# Method in brief: as §1
# [24] = biological target: Gal(b1-3)GlcNAc(b1-3)Gal(b1-4)Glc
# Method in brief: as §1
# [25] = biological target: Gal(b1-3)GlcNAc(b1-3)Gal(b1-4)GlcNAc
# Method in brief: as §1
# [26] = biological target: Gal(b1-3)GlcNAc(b1-3)Gal(b1-4)GlcNAc(b1-2)Man(a1-3)[Gal(b1-3)GlcNAc(b1-3)Gal(b1-4)GlcNAc(b1-2)Man(a1-6)]Man(b1-4)GlcNAc(b1-4)GlcNAc
# Method in brief: as §1
binder,measurement,setting,value
"Flo1 (Saccharomyces cerevisiae), P32768 (protein) SGATEACLPAGQRKSGMNINFYQYSLKDSSTYSNAAYMAYGYASKTKLGSVGGQTDISIDYNIPCVSSSGTFPCPQEDSYGNWGCKGMGACSNSQGIAYWSTDLFGFYTTPTNVTLEMTGYFLPPQTGSYTFKFATVDDSAILSVGGATAFNCCAQQQPPITSTNFTIDGIKPWGGSLPPNIEGTVYMYAGYYYPMKVVYSNAVSWGTLPISVTLPDGTTVSDDFEGYVYSFDDDLSQSNCTVPDPSNY",glycan array binding signal (z-score),[1],-0.305
same,glycan array binding signal (z-score),[2],0.291
same,glycan array binding signal (z-score),[3],-0.543
same,glycan array binding signal (z-score),[4],-0.203
same,glycan array binding signal (z-score),[5],-0.413
same,glycan array binding signal (z-score),[6],1.85
same,glycan array binding signal (z-score),Gal(a1-3)GalNAc,-0.186
same,glycan array binding signal (z-score),[7],-0.142
same,glycan array binding signal (z-score),[8],0.81
same,glycan array binding signal (z-score),Gal(a1-4)Gal(b1-4)Glc,-0.11
same,glycan array binding signal (z-score),Gal(a1-4)Gal(b1-4)GlcNAc,-0.025
same,glycan array binding signal (z-score),[9],1.12
same,glycan array binding signal (z-score),[10],-0.596
same,glycan array binding signal (z-score),Gal(a1-4)GlcNAc,-0.553
same,glycan array binding signal (z-score),Gal(a1-6)Glc,-0.189
same,glycan array binding signal (z-score),Gal(b1-2)Gal,-0.426
same,glycan array binding signal (z-score),Gal(b1-3)Gal,-0.189
same,glycan array binding signal (z-score),Gal(b1-3)Gal(b1-4)GlcNAc,0.148
same,glycan array binding signal (z-score),[11],0.853
same,glycan array binding signal (z-score),Gal(b1-3)GalNAc,-0.238
same,glycan array binding signal (z-score),[12],-0.379
same,glycan array binding signal (z-score),[13],-0.653
same,glycan array binding signal (z-score),Gal(b1-3)GalNAc(b1-3)Gal,-0.276
same,glycan array binding signal (z-score),[14],-0.031
same,glycan array binding signal (z-score),[15],-0.62
same,glycan array binding signal (z-score),[16],-0.575
same,glycan array binding signal (z-score),Gal(b1-3)GlcNAc,-0.291
same,glycan array binding signal (z-score),[17],0.411
same,glycan array binding signal (z-score),[18],-0.648
same,glycan array binding signal (z-score),Gal(b1-3)GlcNAc(b1-2)Man,0.212
same,glycan array binding signal (z-score),[19],0.687
same,glycan array binding signal (z-score),[20],0.542
same,glycan array binding signal (z-score),[21],1.05
same,glycan array binding signal (z-score),[22],0.772
same,glycan array binding signal (z-score),[23],-0.33
same,glycan array binding signal (z-score),[24],-0.335
same,glycan array binding signal (z-score),[25],-1.03
same,glycan array binding signal (z-score),[26],-0.091

# Copied from the entries so far (two entries):
binder,measurement,setting,value
"Flo1 (Saccharomyces cerevisiae), P32768 (protein) SGATEACLPAGQRKSGMNINFYQYSLKDSSTYSNAAYMAYGYASKTKLGSVGGQTDISIDYNIPCVSSSGTFPCPQEDSYGNWGCKGMGACSNSQGIAYWSTDLFGFYTTPTNVTLEMTGYFLPPQTGSYTFKFATVDDSAILSVGGATAFNCCAQQQPPITSTNFTIDGIKPWGGSLPPNIEGTVYMYAGYYYPMKVVYSNAVSWGTLPISVTLPDGTTVSDDFEGYVYSFDDDLSQSNCTVPDPSNY",glycan array binding signal (z-score),[6],1.85
same,glycan array binding signal (z-score),Gal(a1-3)GalNAc,-0.186
